Measured values from publication PMC11482939 (bioRxiv, 2025).
pIC50: −log10 of the molar value.

System: UM cell lines (MP41, MP38, MP46)
Experiment: Concentration-response cell viability, UM cell lines overall
Assay type: cell-based
Settings: Homo sapiens, 72 h, read-out: UM IC50

CN[C@@H]1C[C@H]2O[C@@](C)([C@@H]1OC)n1c3ccccc3c3c4c(c5c6ccccc6n2c5c31)C(=O)NC4 [Staurosporine]
pIC50: ~6.47
